Source: patent US20040102454A1, “Phenylahistin and the phenylahistin analogs, a new class of anti-tumor compounds” (priority 1998, published 2004)

Test system: P388 cells
Test: P388 proliferation, Alamar Blue assay
Assay type: cell-based, murine
Details: Mus musculus, P388, read-out: IC50 P388 proliferation
Experimental: The biological activity of phenylahistin and its derivatives, synthesized as described in EXAMPLE 7 and established according to the methods described in EXAMPLES 5 and 11, are summarized in Table 4. […]
For this example, the Alamar Blue™ assay was performed as follows. Exponentially growing P388 cells were seeded into 96-well tissue culture plates (5×10^3 cells/100 μl/well) and cultured in RPMI 1640 medium supplemented with 10% fetal bovine serum for 16 h. Compounds (DMSO solution) were then added to each well at various concentrations, and the cells were cultured for an additional 48 h. Living cells were counted using Alamar Blue™ (BioSource International, Camarillo, Calif.), according to the method of Ahmed, S. A. et al., J. Immunol. Methods, 170, 211 (1994).

COc1cc2c(c(OC)c1OC)-c1ccc(OC)c(=O)cc1[C@@H](NC(C)=O)CC2 [colchicine]
IC50: 31 nM
